Experimental data taken from patent US9777070B2 (Pfizer Inc., priority 2014, dated 2017).

Assay: general procedure: solution-phase peptide synthesis; HATU
Settings: for final HPLC purity: HPLC Protocol A

Which results are given for “N-[(9H-fluoren-9-ylmethoxy)carbonyl]-2-methylalanyl-N-[(3R,4S,5S)-3-methoxy-1-{(2S)-2-[(1R,2R)-1-methoxy-2-methyl-3-oxo-3-{[(1S)-2-phenyl-1-(1,3-thiazol-2-yl)ethyl]amino}propyl]pyrrolidin-1-yl}-5-methyl-1-oxoheptan-4-yl]-N-methyl-L-valinamide”?
step yield (coupling step): 74%; final HPLC purity (coupling step): >97%

What does the source list for “2-methylalanyl-N-[(3R,4S,5S)-3-methoxy-1-{(2S)-2-[(1R,2R)-1-methoxy-2-methyl-3-oxo-3-{[(1S)-2-phenyl-1-(1,3-thiazol-2-yl)ethyl]amino}propyl]pyrrolidin-1-yl}-5-methyl-1-oxoheptan-4-yl]-N-methyl-L-valinamide”?
step yield (late stage modification step): 75%; final HPLC purity (late stage modification step): >97%

For “N-[(9H-fluoren-9-ylmethoxy)carbonyl]-2-methylalanyl-N-[(3R,4S,5S)-3-methoxy-1-{(2S)-2-[(1R,2R)-1-methoxy-3-{[(2S)-1-methoxy-1-oxo-3-phenylpropan-2-yl]amino}-2-methyl-3-oxopropyl]pyrrolidin-1-yl}-5-methyl-1-oxoheptan-4-yl]-N-methyl-L-valinamide”, which step yield (coupling step, over two steps) is on record?
The step yield was 88% over two steps.

With “2-methylalanyl-N-[(3R,4S,5S)-1-{(2S)-2-[(1R,2R)-3-{[(1S)-1-carboxy-2-phenylethyl]amino}-1-methoxy-2-methyl-3-oxopropyl]pyrrolidin-1-yl}-3-methoxy-5-methyl-1-oxoheptan-4-yl]-N-methyl-L-valinamide, trifluoroacetic acid salt” as the substance, how does the step yield (late stage modification step, trifluoroacetic acid salt) read?
The step yield was 52%.
